For 1 substance, binding results are on record in publication PMC8124066.

By UniProt entry, the sequences of proteins in these tests, tags left out. Where a name states a change or a piece, a line headed by the entry shows the natural chain unless it says otherwise.
UniProt P46935: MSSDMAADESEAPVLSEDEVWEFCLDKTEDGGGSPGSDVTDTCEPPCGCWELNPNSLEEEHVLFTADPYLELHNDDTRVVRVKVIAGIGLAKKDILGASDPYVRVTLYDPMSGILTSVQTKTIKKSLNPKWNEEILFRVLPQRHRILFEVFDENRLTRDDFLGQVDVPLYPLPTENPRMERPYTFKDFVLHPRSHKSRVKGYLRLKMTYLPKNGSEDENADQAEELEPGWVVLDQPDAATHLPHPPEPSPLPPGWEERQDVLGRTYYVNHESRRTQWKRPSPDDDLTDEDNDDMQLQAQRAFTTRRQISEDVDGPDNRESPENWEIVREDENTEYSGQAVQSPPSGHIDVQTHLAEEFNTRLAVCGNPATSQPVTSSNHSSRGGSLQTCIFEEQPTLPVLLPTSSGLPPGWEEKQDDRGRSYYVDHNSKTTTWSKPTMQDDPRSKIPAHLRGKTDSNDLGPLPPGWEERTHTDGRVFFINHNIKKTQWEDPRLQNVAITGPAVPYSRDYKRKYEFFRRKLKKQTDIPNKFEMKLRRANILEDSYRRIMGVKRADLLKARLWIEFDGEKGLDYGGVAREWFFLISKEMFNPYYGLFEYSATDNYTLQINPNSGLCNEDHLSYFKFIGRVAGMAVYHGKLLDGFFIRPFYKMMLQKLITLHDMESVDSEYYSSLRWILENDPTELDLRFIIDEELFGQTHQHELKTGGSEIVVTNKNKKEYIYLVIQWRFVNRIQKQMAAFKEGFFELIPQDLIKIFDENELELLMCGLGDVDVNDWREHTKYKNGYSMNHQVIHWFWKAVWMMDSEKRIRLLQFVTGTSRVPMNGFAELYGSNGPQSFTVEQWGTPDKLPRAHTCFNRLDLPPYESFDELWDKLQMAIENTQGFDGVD
UniProt Q08775: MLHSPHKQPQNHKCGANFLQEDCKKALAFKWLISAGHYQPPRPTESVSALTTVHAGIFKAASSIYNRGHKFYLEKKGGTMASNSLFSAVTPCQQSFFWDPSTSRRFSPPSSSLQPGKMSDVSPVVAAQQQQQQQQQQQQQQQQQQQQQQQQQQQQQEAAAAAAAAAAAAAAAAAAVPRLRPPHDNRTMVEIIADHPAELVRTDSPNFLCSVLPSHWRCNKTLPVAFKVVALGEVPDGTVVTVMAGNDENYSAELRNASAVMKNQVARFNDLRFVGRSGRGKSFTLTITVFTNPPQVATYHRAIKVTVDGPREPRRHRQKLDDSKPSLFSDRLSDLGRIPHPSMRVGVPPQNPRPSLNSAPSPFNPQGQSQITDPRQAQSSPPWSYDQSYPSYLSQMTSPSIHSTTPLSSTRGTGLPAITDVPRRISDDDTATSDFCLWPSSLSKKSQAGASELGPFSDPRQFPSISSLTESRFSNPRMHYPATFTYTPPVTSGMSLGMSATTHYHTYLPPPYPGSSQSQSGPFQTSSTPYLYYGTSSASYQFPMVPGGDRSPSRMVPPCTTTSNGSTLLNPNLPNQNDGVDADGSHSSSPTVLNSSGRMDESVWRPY

The target of this assay is Flag-tagged Nedd4ΔWW (UniProt P46935). Put plainly: co-IP; Myc-Runx2 co-transfected with flag-Nedd4 constructs in M-BMSCs; whole-cell lysates immunoprecipitated with anti-flag antibody, immunoblotted with anti-flag or anti-myc antibodies.

Results are given in words; binding and its absence hold for the method and conditions named. In cells and extracts the contact can be indirect.

Regarding Myc-Runx2 (from UniProt Q08775 1-607), the binding result is on record as “no binding”.
